According to patent publication US11376257B2, “Generation of muscle lineage cells and therapeutic uses thereof” (GENEA BIOCELLS USA (HOLDINGS), INC., priority 2016, dated 2022):

Test system: stem cell-derived myoblasts
Experimental: For screening, frozen satellite-like cells, prepared as described in Example 1, were thawed in a water bath at 37° C., resuspended in 3 mL of warm Myoblast Medium (Genea Biocells) and centrifuged at 400×g for 4 min. The supernatant was removed and the cell pellet was resuspended in 1 mL of medium for cell count. Cells were seeded at a density of 5,000 cells/cm^2 in collagen I-coated plastic flasks (Biocoat, BD Bioscience) and incubated at 5% CO2, 37° C. Every other day the culture medium was exchanged until cells reached a confluency of 80%, then cells were trypsinized, counted and seeded in collagen-coated 96-well plate (Biocoat) at density of 30,000 cells/cm^2 in Myoblast Medium using an automated liquid handling system (Fluent, Tecan Trading AG, Switzerland). Cells were incubated at 5% CO2, 37° C. and the medium was changed every other day until cells reached a confluence of 80%. The medium was exchanged for Myotube Medium (Genea Biocells) containing the test compounds. No further media changes were performed. In general, 3 to 6 concentrations were tested ranging from 3 μM to 1 nM; one plate per dilution was used. Media and DMSO control wells were placed randomly. No media changes were performed at this stage. […]

Compound: CN1[C@@H]2CC[C@H]1C[C@@H](OC(=O)C(CO)c1ccccc1)C2 (stereo partly shown) [atropine]
- toxicity: toxic
